The values below come from paper PMC11770119.

Sequences of proteins named here, by UniProt entry; tags and fusion partners are left off.
UniProt P21707: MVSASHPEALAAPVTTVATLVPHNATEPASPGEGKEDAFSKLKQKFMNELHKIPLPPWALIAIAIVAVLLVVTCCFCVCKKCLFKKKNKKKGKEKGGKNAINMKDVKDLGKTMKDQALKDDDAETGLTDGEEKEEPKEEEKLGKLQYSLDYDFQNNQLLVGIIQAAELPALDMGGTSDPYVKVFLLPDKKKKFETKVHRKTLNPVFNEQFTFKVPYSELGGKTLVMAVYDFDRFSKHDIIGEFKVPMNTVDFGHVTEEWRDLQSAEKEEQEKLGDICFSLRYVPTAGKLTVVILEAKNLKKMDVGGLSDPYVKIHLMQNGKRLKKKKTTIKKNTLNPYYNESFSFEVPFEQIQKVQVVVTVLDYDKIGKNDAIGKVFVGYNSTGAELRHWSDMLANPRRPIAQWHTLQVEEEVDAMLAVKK
UniProt Q9JK66: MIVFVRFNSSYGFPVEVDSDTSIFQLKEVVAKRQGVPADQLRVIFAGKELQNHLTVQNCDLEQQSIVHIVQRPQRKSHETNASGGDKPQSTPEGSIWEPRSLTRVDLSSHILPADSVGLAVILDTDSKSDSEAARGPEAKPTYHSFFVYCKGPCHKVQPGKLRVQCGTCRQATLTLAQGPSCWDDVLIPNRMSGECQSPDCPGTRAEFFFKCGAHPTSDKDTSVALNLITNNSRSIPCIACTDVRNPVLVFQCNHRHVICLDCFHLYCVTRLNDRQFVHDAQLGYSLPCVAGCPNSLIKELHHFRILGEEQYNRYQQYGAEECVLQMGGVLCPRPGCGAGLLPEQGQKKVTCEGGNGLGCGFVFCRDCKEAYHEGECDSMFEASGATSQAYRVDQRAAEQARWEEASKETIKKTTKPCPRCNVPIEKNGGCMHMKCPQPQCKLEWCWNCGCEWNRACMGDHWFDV

For test [1], the target named is Synaptotagmin-1 (rat (endogenous in H9c2)) (UniProt P21707). Briefly: co-IP; cardiomyocyte (H9c2) lysate in IP Lysis/Wash buffer incubated with antibody-crosslinked Protein A/G Plus Agarose resin at 4 °C overnight (Pierce Classic IP Kit); eluate blotted; cells with or without 500 μM H2O2, or infected with Syt1 overexpression or negative control adenovirus.
The target in test [2] is Synaptotagmin-1, overexpressed from adenovirus (UniProt P21707). The test is described as above.

Results are given in words; binding and its absence hold for the method and conditions named. Binding seen in cells or lysates may run through a third protein. Some binding calls cover weakened binding; strength is not graded here.

Turning to “Parkin (from UniProt Q9JK66 1-465) (enzyme)”, the binding entry in test [1] and in test [2] was “binds” throughout.
